According to US10159726B2, “Peptides, combination of peptides and scaffolds for use in immunotherapeutic treatment of various cancers” (Immatics Biotechnologies GmbH, priority 2015, dated 2018):
For part of these data: For expression read-outs the peptide stands for its source gene, whose mRNA was measured; the gene is not named for every peptide.

Assays:
Design in all cases: species or system human
[1] = tested on: source genes of selected peptides; experiment: Expression profiling of source genes by in-house RNAseq, tumor vs normal tissues (target coverage); details: for Target coverage, over-expression of source gene, AML: AML (N = 7), over-expression = more than 1.5-fold higher expression on tumor vs highest-expressing relevant normal tissue; for Target coverage, over-expression of source gene, AML / Target coverage, over-expression of source gene, BRCA / Target coverage, over-expression of source gene, CLL / Target coverage, over-expression of source gene, CRC / Target coverage, over-expression of source gene, GB / Target coverage, over-expression of source gene, HCC / Target coverage, over-expression of source gene, OC / Target coverage, over-expression of source gene, OSCAR / Target coverage, over-expression of source gene, PC / Target coverage, over-expression of source gene, RCC / Target coverage, over-expression of source gene, SCLC / Target coverage, over-expression of source gene, pNSCLC: in-house RNASeq; for Target coverage, over-expression of source gene, BRCA: BRCA (N = 10); for Target coverage, over-expression of source gene, BRCA / Target coverage, over-expression of source gene, CLL / Target coverage, over-expression of source gene, CRC / Target coverage, over-expression of source gene, GB / Target coverage, over-expression of source gene, HCC / Target coverage, over-expression of source gene, OC / Target coverage, over-expression of source gene, OSCAR / Target coverage, over-expression of source gene, PC / Target coverage, over-expression of source gene, RCC / Target coverage, over-expression of source gene, SCLC / Target coverage, over-expression of source gene, pNSCLC: over-expression = more than 1.5-fold vs highest normal tissue; for Target coverage, over-expression of source gene, CLL: CLL (N = 10); for Target coverage, over-expression of source gene, CRC: CRC (N = 20); for Target coverage, over-expression of source gene, GB: GB (N = 24); for Target coverage, over-expression of source gene, HCC: HCC (N = 15); for Target coverage, over-expression of source gene, OC: OC (N = 12); for Target coverage, over-expression of source gene, OSCAR: OSCAR (N = 11); for Target coverage, over-expression of source gene, PC: PC (N = 26); for Target coverage, over-expression of source gene, RCC: RCC (N = 10); for Target coverage, over-expression of source gene, SCLC: SCLC (N = 10); for Target coverage, over-expression of source gene, pNSCLC: pNSCLC (N = 11)
[2] = tested on: source genes of selected peptides; experiment: Target coverage of source genes in tumor entities based on TCGA Research Network data; details: over-expressed = more than 2-fold above the highest 75% percentile of normal organs; for Target coverage, over-expression category of source gene, KICH (N = 66): Kidney chromophobe; for Target coverage, over-expression category of source gene, KIRP (N = 291): Kidney renal papillary cell carcinoma; for Target coverage, over-expression category of source gene, MESO (N = 87): Mesothelioma; for Target coverage, over-expression category of source gene, SKCM (N = 473): Skin cutaneous melanoma; for Target coverage, over-expression category of source gene, STAD (N = 415): Stomach adenocarcinoma; for Target coverage, over-expression category of source gene, THCA (N = 513): Thyroid carcinoma; for Target coverage, over-expression category of source gene, UVM (N = 80): Uveal melanoma
[3] = tested on: HLA-A*02 molecules of primary tumors; experiment: Identification and relative LC-MS quantitation of HLA-A*02 tumor-associated peptides presented on tissue samples (XPRESIDENT presentation profiles)
[4] = Table 8B: selected HLA-A*02 peptides, presentation on additional cancer entities
[5] = Table 8A: selected HLA-A*02-binding tumor-associated peptides, cancer entities on which the peptide was found presented

Substance | Target coverage, over-expression of source gene, AML [1] | Target coverage, over-expression of source gene, BRCA [1] | Target coverage, over-expression of source gene, CLL [1] | Target coverage, over-expression of source gene, CRC [1] | Target coverage, over-expression of source gene, GB [1] | Target coverage, over-expression of source gene, HCC [1] | Target coverage, over-expression of source gene, OC [1] | Target coverage, over-expression of source gene, OSCAR [1] | Target coverage, over-expression of source gene, PC [1] | Target coverage, over-expression of source gene, RCC [1] | Target coverage, over-expression of source gene, SCLC [1] | Target coverage, over-expression of source gene, pNSCLC [1] | Target coverage, over-expression category of source gene, KICH (N = 66) [2] | Target coverage, over-expression category of source gene, KIRP (N = 291) [2] | Target coverage, over-expression category of source gene, MESO (N = 87) [2] | Target coverage, over-expression category of source gene, SKCM (N = 473) [2] | Target coverage, over-expression category of source gene, STAD (N = 415) [2] | Target coverage, over-expression category of source gene, THCA (N = 513) [2] | Target coverage, over-expression category of source gene, UVM (N = 80) [2] | Peptide Presentation on cancer entities [3, 4] | also measured
18: peptide found in MET (gene looked up) (YVLNEEDLQKV; listed as Homo sapiens) [compound 18] | I (<19% over-expression = I) | I (<19% over-expression = I) | I (<19% over-expression = I) | II (20-49% = II) | I (<19% over-expression = I) | II (20-49% = II) | II (20-49% = II) | I (<19% over-expression = I) | II (20-49% = II) | IV (>70% = IV) | I (<19% over-expression = I) | II (20-49% = II) | B (>=20% of tumors above the cutoff, but <50%) | A (>=50% of tumors above the cutoff) | C (>=5% of tumors above the cutoff, but <20%) | C (>=5% of tumors above the cutoff, but <20%) | C (>=5% of tumors above the cutoff, but <20%) | A (>=50% of tumors above the cutoff) | B (>=20% of tumors above the cutoff, but <50%) | UTC, NSCLC | –
32: peptide found in PRKDC (gene looked up) (ILADEAFFSV; listed as Homo sapiens) [compound 32] | I (<19% over-expression = I) | III (50-69% = III) | I (<19% over-expression = I) | II (20-49% = II) | III (50-69% = III) | I (<19% over-expression = I) | III (50-69% = III) | II (20-49% = II) | I (<19% over-expression = I) | I (<19% over-expression = I) | IV (>70% = IV) | III (50-69% = III) | – | – | – | C (>=5% of tumors above the cutoff, but <20%) | B (>=20% of tumors above the cutoff, but <50%) | – | C (>=5% of tumors above the cutoff, but <20%) | HNSCC, UTC, AML, GBC_CCC | Target coverage for source genes of selected peptides, GBC_CCC (N = 10) ([1]; gallbladder adenocarcinoma and cholangiocarcinoma, share of tumors with more than 1.5-fold higher expression than the highest-expressing relevant normal tissue, in-house RNAseq): I (<19% over-expression = I); Target coverage for source genes of selected peptides, GC (N = 11) ([1]; gastric cancer, share of tumors with more than 1.5-fold higher expression than the highest-expressing relevant normal tissue, in-house RNAseq): I (<19% over-expression = I); Target coverage for source genes of selected peptides, HNSCC (N = 10) ([1]; head and neck small cell carcinoma, share of tumors with more than 1.5-fold higher expression than the highest-expressing relevant normal tissue, in-house RNAseq): I (<19% over-expression = I); Target coverage for source genes of selected peptides, MEL (N = 10) ([1]; melanoma, share of tumors with more than 1.5-fold higher expression than the highest-expressing relevant normal tissue, in-house RNAseq): II (20-49% = II); Target coverage for source genes of selected peptides, NHL (N = 10) ([1]; non-Hodgkin lymphoma, share of tumors with more than 1.5-fold higher expression than the highest-expressing relevant normal tissue, in-house RNAseq): II (20-49% = II); Target coverage for source genes of selected peptides, PCA (n = 10) ([1]; prostate cancer and benign prostate hyperplasia, share of tumors with more than 1.5-fold higher expression than the highest-expressing relevant normal tissue, in-house RNAseq): I (<19% over-expression = I); Target coverage for source genes of selected peptides, UBC (N = 10) ([1]; urinary bladder cancer, share of tumors with more than 1.5-fold higher expression than the highest-expressing relevant normal tissue, in-house RNAseq): I (<19% over-expression = I); Target coverage for source genes of selected peptides, UTC (N = 10) ([1]; uterine cancer, share of tumors with more than 1.5-fold higher expression than the highest-expressing relevant normal tissue, in-house RNAseq): I (<19% over-expression = I); Target coverage, over-expression category of source gene, BLCA (N = 408) ([2]; Bladder urothelial carcinoma): C (>=5% of tumors above the cutoff, but <20%); Target coverage, over-expression category of source gene, CESC (N = 307) ([2]; Cervical squamous cell carcinoma and endocervical adenocarcinoma): C (>=5% of tumors above the cutoff, but <20%); Target coverage, over-expression category of source gene, HNSC (N = 521) ([2]; Head and neck squamous cell carcinoma): B (>=20% of tumors above the cutoff, but <50%); Target coverage, over-expression category of source gene, SARC (N = 263) ([2]; Sarcoma): C (>=5% of tumors above the cutoff, but <20%); Target coverage, over-expression category of source gene, TGCT (N = 156) ([2]; Testicular germ cell tumors): B (>=20% of tumors above the cutoff, but <50%); Target coverage, over-expression category of source gene, UCS (N = 57) ([2]; Uterine carcinosarcoma): B (>=20% of tumors above the cutoff, but <50%); Peptide Presentation on cancer entities [3, 5]: CLL, PC, GB, UBC, PCA, CRC, SCLC, HCC, RCC, OC, NSCLC, MEL, OSCAR, clPC, GC, BRCA, NHL
17: peptide found in MET (gene looked up) (ILHEHHIFL; listed as Homo sapiens) [compound 17] | I (<19% over-expression = I) | I (<19% over-expression = I) | I (<19% over-expression = I) | II (20-49% = II) | I (<19% over-expression = I) | II (20-49% = II) | II (20-49% = II) | I (<19% over-expression = I) | II (20-49% = II) | IV (>70% = IV) | I (<19% over-expression = I) | II (20-49% = II) | B (>=20% of tumors above the cutoff, but <50%) | A (>=50% of tumors above the cutoff) | C (>=5% of tumors above the cutoff, but <20%) | C (>=5% of tumors above the cutoff, but <20%) | C (>=5% of tumors above the cutoff, but <20%) | A (>=50% of tumors above the cutoff) | B (>=20% of tumors above the cutoff, but <50%) | UTC | Peptide Presentation on cancer entities [3, 5]: RCC, NSCLC
